Measurements reported in publication PMC7819943, “Rice protein-binding microarrays: a tool to detect cis-acting elements near promoter regions in rice”.
Some of the results follow.

Chains of the proteins cited; added tags and fusions are not shown.
UniProt Q0JBA9, entry or part of it: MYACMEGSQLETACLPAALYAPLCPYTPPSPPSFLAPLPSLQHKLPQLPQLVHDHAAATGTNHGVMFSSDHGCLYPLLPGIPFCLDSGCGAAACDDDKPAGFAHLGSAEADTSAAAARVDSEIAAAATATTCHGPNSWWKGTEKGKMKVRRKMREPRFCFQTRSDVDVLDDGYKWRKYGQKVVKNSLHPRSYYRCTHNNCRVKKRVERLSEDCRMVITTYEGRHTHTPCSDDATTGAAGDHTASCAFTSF

Target: OsWRKY34 (Oryza sativa, UniProt Q0JBA9 1-250)
Assay: protein-binding microarray (RPBM); PBS, 2% BSA, 51.3 ng/ul salmon testes DNA, 50 uM zinc acetate, 200 nM TF, 25 C, 1 h; high values mean tight binding
Conditions: protein: recombinant; tags: N-terminal polyhistidine and DsRed monomer fusion (pET32a); label: CyDye5-dUTP incorporated in the synthesized complementary strand; 3' TTTTT single-stranded linker to array surface; dsDNA, one strand shown
Procedure, shortened: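 Binding signal is reported as fluorescence intensity per feature (arbitrary units) from an Axon 4000B scanner. Incubation used 200 nM of each Ni–NTA-purified, N-terminally polyhistidine- and DsRed-fused transcription factor from E. coli BL21-CodonPlus on a double-stranded custom Agilent array for 1 h at 25 °C, with 50 µM zinc acetate in the buffer, followed by washing.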

Sequence	binding signal
TTTTCTTTTTCTTTTTTCTGTTCTTCAGGCAACAAACTGGCGGAGTCACCTAGTGCAG	9200 fluorescence intensity (a.u.)
ATATATATTGTGGATACCTTTCTGTAAAGTCTCTTTCAAACGGAGTCACCTAGTGCAG	10800 fluorescence intensity (a.u.)
ACTTGATTTTCTTGATTTACGAGATGGAGTTTTGCCTGTTCGGAGTCACCTAGTGCAG	9080 fluorescence intensity (a.u.)
GCGGCCGCGCGATTTCTAGGGTTTTGGGTCCTTTGCTCGGCGGAGTCACCTAGTGCAG	8270 fluorescence intensity (a.u.)
ACCGTGGGCAATGTTTTCAAAGTTTGACCGCATTGTTCTGCGGAGTCACCTAGTGCAG	9490 fluorescence intensity (a.u.)
CGCTTTTCTACCTCAACACGCCTCGTTCTTCTTCTTCTCTCGGAGTCACCTAGTGCAG	9080 fluorescence intensity (a.u.)
CCTCCGTTTCATATTATAAGACTTTCTGGCATTGCCAACACGGAGTCACCTAGTGCAG	8950 fluorescence intensity (a.u.)
ATACTTCCTTTCTGTTTCCAGTGTCTCTCTTCATGCACTCCGGAGTCACCTAGTGCAG	10700 fluorescence intensity (a.u.)
GGATTTATGTAATTTTTTTCTCTACGTATATATTCCATCACGGAGTCACCTAGTGCAG	10900 fluorescence intensity (a.u.)
CCTGCACCTTGTGGCGGCCGTAGCTCGCTCTCGCTCTCGCCGGAGTCACCTAGTGCAG	9150 fluorescence intensity (a.u.)
CTGACTCGGACGACGACATCGCCTTCGCCGCTTTCACAGTCGGAGTCACCTAGTGCAG	8040 fluorescence intensity (a.u.)
TCGCCCTTTTTTACCGCGTTGACGGAATCAGATTCGTTTTCGGAGTCACCTAGTGCAG	8370 fluorescence intensity (a.u.)
CACTTTCTGTTTCTGACACTCTTGCCCAAGTTTCCTAGTTCGGAGTCACCTAGTGCAG	13600 fluorescence intensity (a.u.)
ATGTCATGTCATGTCGCATATCTCCCATGTCTTGGCACGACGGAGTCACCTAGTGCAG	9540 fluorescence intensity (a.u.)
CCTTCCTTTCCAGCTCGGTTTGCTAACTCATGGTCTCCTCCGGAGTCACCTAGTGCAG	9750 fluorescence intensity (a.u.)
CCACTAGGAGTGATAATTCTTTGATTTCATACCACTTTCTCGGAGTCACCTAGTGCAG	8310 fluorescence intensity (a.u.)
GTCTCGTCTCGTCTCGTCTCGTCTCGTGTCGCCTCAACCCCGGAGTCACCTAGTGCAG	10500 fluorescence intensity (a.u.)
TAAACAAAGCTTAATTTCACTTTTGTCGATTTATTTTAAACGGAGTCACCTAGTGCAG	8220 fluorescence intensity (a.u.)
CCACCGAAAAATGTTTCACCTAGTATACTTACAATGTTTCCGGAGTCACCTAGTGCAG	8500 fluorescence intensity (a.u.)
ATAAAATATACGACACACTTATACTTACACTCAATTTTCTCGGAGTCACCTAGTGCAG	9070 fluorescence intensity (a.u.)
CCCTTTTTTATTATTCGTATTTTATGTTATATGTATATTTCGGAGTCACCTAGTGCAG	9090 fluorescence intensity (a.u.)

Sequence	binding signal
AGTAGTGTTGAATCTGAGTTATGCTGTGGGATATCGTCGACGGAGTCACCTAGTGCAG	8340 fluorescence intensity (a.u.)
CCGTTCGCTTGAAATCCATCCCATCCATCCTTGGCTTACTCGGAGTCACCTAGTGCAG	8420 fluorescence intensity (a.u.)
ATAAGCTCCGGCATCATCTCCATCATCTCATAGTCCTCTTCGGAGTCACCTAGTGCAG	9450 fluorescence intensity (a.u.)
TAGATTCCACCTTAAAATTTTTCACTCTGTCACATCGAACCGGAGTCACCTAGTGCAG	9300 fluorescence intensity (a.u.)
GATGCATATCAATCTAGCATTGCCGGTCAACGTTCTCGAGCGGAGTCACCTAGTGCAG	8240 fluorescence intensity (a.u.)
TTCCTTCTTTCCATTTATTTTCTTTTATTTTCCCAAGAGACGGAGTCACCTAGTGCAG	9060 fluorescence intensity (a.u.)
TATCCCACTTTATATTTTCTACGTGTCCGCATAACAGAACCGGAGTCACCTAGTGCAG	8990 fluorescence intensity (a.u.)
AACTGGTGATACTCTGCTCTTAGTTTTATTTTTTTCCGAACGGAGTCACCTAGTGCAG	8750 fluorescence intensity (a.u.)
GCCTTACTTTAGCACCTTGAAAGCCGTATACACAATTACACGGAGTCACCTAGTGCAG	8490 fluorescence intensity (a.u.)
TTTTGTTCGTTCTCTTTCGCTCTCGAGGTCTCTCTCTCTCCGGAGTCACCTAGTGCAG	9570 fluorescence intensity (a.u.)
AATATGTTTGTTTTGTGTTGAAAATACTACTAGATTTTTCCGGAGTCACCTAGTGCAG	8720 fluorescence intensity (a.u.)
GGTCATTCCCGAGTCCCCATCTGGCCATCTCTCCAATCTCCGGAGTCACCTAGTGCAG	8400 fluorescence intensity (a.u.)
AATCGCCGCAATATATCTCGCCCGTTGCTGCCAGGTTCAGCGGAGTCACCTAGTGCAG	8880 fluorescence intensity (a.u.)
TCCCCGCCGATCACGCCGCTCGCCGCTCGCCACCGCCGGACGGAGTCACCTAGTGCAG	8790 fluorescence intensity (a.u.)
CTTTGGCTTTTTCTCGGTCTTCGAAGTGGTATTCCGATGACGGAGTCACCTAGTGCAG	8220 fluorescence intensity (a.u.)
CTTCTTTGGTCGTTTTGGCCTCGAGCTCCGTTCTTAAACTCGGAGTCACCTAGTGCAG	10300 fluorescence intensity (a.u.)
TGCATCTCGCCTTATCCCCGCGCCGGCGCTAGGCGAATCGCGGAGTCACCTAGTGCAG	8340 fluorescence intensity (a.u.)
TTTTTTCCTTTCAAGTGTGTACTGGCGCTAAATTCGCCTTCGGAGTCACCTAGTGCAG	9650 fluorescence intensity (a.u.)
AACTTTTCTACATACACTTCCAACTTTTTTCGTTACATCGCGGAGTCACCTAGTGCAG	8830 fluorescence intensity (a.u.)
ACCGTTTATCCGCATCGCTCTAATCCCTATCGTCCACAGGCGGAGTCACCTAGTGCAG	10300 fluorescence intensity (a.u.)
TTGGTTGATGGCTAAGTTTACTATACCTCACTTTGCCACACGGAGTCACCTAGTGCAG	8250 fluorescence intensity (a.u.)

For convenience, part of the list above:
Sequence	binding signal
TATCCCACTTTATATTTTCTACGTGTCCGCATAACAGAACCGGAGTCACCTAGTGCAG	8990 fluorescence intensity (a.u.)
AACTGGTGATACTCTGCTCTTAGTTTTATTTTTTTCCGAACGGAGTCACCTAGTGCAG	8750 fluorescence intensity (a.u.)
